At least one structure is not confirmed: it was looked up by name or label, or the drawing left a doubt.
Test: Clinical trial of a maternal supplement: anthropometric values (length, weight, BMI, head circumference) of the babies
Type: in vivo, human
Conditions: age 21 months

With CC/C=C\C/C=C\C/C=C\C/C=C\C/C=C\C/C=C\CCC(=O)O [DHA, docosahexaenoic acid] the “body mass index of children compared with group not receiving DHA” value was “significantly lower” and the “weight of children compared with group not receiving DHA” value was “significantly lower”.

Source: patent US8454950B2, “Maternal supplement” (Nestec S.A., priority 2006, dated 2013)
